Experimental data taken from article PMC7311467.
Results are given in words; binding and its absence hold for the method and conditions named. In cells and extracts the contact can be indirect. Binding can be weak; no strength is given. Where a sequence is shown, tags or fusion partners need not be part of it.

Biological target: T1, 3MYC-SENP2 (UniProt Q9HC62)
T1 sequence: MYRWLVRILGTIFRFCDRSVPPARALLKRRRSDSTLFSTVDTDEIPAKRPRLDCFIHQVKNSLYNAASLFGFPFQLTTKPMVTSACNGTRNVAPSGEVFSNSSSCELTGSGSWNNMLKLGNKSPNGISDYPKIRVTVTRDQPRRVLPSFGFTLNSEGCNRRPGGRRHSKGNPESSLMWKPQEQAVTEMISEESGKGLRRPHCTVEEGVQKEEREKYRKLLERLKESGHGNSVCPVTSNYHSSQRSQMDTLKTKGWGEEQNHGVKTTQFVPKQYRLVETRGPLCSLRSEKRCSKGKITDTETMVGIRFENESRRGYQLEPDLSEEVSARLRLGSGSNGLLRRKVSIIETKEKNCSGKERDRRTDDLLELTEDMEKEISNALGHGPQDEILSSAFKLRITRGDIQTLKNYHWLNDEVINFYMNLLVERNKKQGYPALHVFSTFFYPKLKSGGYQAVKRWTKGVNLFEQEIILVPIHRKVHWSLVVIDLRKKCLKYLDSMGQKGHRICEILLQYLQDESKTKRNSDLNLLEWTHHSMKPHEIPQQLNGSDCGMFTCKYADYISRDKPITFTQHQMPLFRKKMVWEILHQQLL
Assay: co-IP; reciprocal IP: HEK293T co-transfected for 48 h, RIPA lysate, anti-MYC-agarose overnight at 4 °C, five washes with RIPA, western blot

hSSB1 N-terminal OB-fold domain (human) (domain or fragment)
binding: binds
